Source: publication PMC3397928
These are yes or no findings as the source states them, for the method shown. Binding seen in cells or lysates may run through a third protein. Some binding calls cover weakened binding; strength is not graded here.

Molecular target: T1, adipose triglyceride lipase (ATGL) (rat (endogenous in primary epididymal adipocytes)) (UniProt P0C548)
T1 sequence: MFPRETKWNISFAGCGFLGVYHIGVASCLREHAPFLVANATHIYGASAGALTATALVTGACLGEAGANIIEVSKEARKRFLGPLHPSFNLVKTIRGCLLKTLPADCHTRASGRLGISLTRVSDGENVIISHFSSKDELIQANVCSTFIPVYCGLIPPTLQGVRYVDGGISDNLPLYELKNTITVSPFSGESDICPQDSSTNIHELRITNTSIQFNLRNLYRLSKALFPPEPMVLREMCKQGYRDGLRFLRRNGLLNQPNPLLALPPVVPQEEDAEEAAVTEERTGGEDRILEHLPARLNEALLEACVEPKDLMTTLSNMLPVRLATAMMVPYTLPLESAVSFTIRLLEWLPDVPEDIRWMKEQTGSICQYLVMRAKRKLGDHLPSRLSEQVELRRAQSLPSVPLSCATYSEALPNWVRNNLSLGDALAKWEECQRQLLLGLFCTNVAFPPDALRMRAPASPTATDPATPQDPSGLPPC
Assay: co-IP; pellet fraction lysate of primary adipocytes from sedentary control (CG) and habitual exercise (EG) rats, pre-cleared with rabbit normal IgG and protein A/G agarose; primary antibody to HSL or ATGL with protein A/G agarose beads at 4°C overnight; beads washed 4 times in ice-cold PBS; immunoblotting

B1: comparative gene identification-58 (CGI-58) (protein, UniProt Q6QA69 1-351)
chain: MKAMAAEEEVDSADAGGGSGWLTGWLPTWCPTSTSHLKEAEEKMLKCVPCTYKKEPVRISNGNSIWTLMFSHNMSSKTPLVLLHGFGGGLGLWALNFEDLSTDRPVYAFDLLGFGRSSRPRFDSDAEEVENQFVESIEEWRCALRLDKMILLGHNLGGFLAAAYSLKYPSRVSHLILVEPWGFPERPDLADQERPIPVWIRALGAALTPFNPLAGLRIAGPFGLSLVQRLRPDFKRKYSSMFEDDTVTEYIYHCNVQTPSGETAFKNMTIPYGWAKRPMLQRIGGLHPDIPVSVIFGARSCIDGNSGTSIQSLRPKSYVKTIAILGAGHYVYADQPEEFNQKVKEICHTVD
Q: For B1, which binding is on record?
A: The binding was “binds”.
